Reference: PMC7819943, “Rice protein-binding microarrays: a tool to detect cis-acting elements near promoter regions in rice”
This is one part of the list.

What follows are sequences tested against T1, OsSMF1 (Oryza sativa, UniProt Q6ZLB0 1-436) (assay: protein-binding microarray (RPBM); PBS, 2% BSA, 51.3 ng/ul salmon testes DNA, 50 uM zinc acetate, 200 nM TF, 25 C, 1 h; high values mean tight binding). Details: protein: recombinant; tags: N-terminal polyhistidine and DsRed monomer fusion (pET32a); chain copies: 2; label: CyDye5-dUTP incorporated in the synthesized complementary strand; 3' TTTTT single-stranded linker to array surface; dsDNA, one strand shown.
T1 sequence: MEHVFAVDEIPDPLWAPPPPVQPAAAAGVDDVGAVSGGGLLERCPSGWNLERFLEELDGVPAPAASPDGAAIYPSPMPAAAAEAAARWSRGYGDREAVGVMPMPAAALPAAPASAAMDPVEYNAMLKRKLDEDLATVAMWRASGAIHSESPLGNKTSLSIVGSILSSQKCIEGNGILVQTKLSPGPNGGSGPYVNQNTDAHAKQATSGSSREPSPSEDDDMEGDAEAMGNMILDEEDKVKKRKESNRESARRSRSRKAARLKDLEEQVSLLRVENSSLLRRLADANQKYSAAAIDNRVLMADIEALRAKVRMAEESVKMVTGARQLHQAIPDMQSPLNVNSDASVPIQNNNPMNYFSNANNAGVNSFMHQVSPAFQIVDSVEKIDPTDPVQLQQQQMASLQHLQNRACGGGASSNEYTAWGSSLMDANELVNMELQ
Summary of the method: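 Ni–NTA purification followed expression in E. coli BL21-CodonPlus of transcription factors fused N-terminally to a polyhistidine tag and DsRed. At 200 nM in PBS with 2% BSA, salmon testes DNA and 50 µM zinc acetate, the protein was incubated for 1 h at 25 °C with a custom Agilent array that had been primer-extended with Cy5-dUTP and blocked with 2% BSA. After washing, the array was read on an Axon 4000B scanner. The binding signal is per-feature fluorescence intensity in arbitrary units.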

Row | Sequence | binding signal
1 | TCCTCAAGATATCTCCACGTATAACTAATCTTGCATATCCCGGAGTCACCTAGTGCAG | 6440 fluorescence intensity (a.u.)
2 | TCCCACATTAAATTTACTCATTAGTTGTTAGGAATCGACACGGAGTCACCTAGTGCAG | 20600 fluorescence intensity (a.u.)
3 | CTCCCGCTCTTTAAAACTGCCACCTCCGTTAACGCCACCACGGAGTCACCTAGTGCAG | 4250 fluorescence intensity (a.u.)
4 | TGTACGCCAAGCGCGCGTTCGTGCACTGGTACGTGGGCGACGGAGTCACCTAGTGCAG | 3490 fluorescence intensity (a.u.)
5 | AATCTTTTAAATCTAATTAGTCCATGATTAGTCATAAGCGCGGAGTCACCTAGTGCAG | 3640 fluorescence intensity (a.u.)
6 | GAGTTGTTGTGTCTGACGTAAGCACTGAAGTGGATATGATCGGAGTCACCTAGTGCAG | 10600 fluorescence intensity (a.u.)
7 | GCGGTGGATAGGAGGGCCGAGGGCCGATGACTTGGACACGCGGAGTCACCTAGTGCAG | 4350 fluorescence intensity (a.u.)
8 | TGCAAACTTCGAAACTCCAAATACCGCGCCACGCGGCAGCCGGAGTCACCTAGTGCAG | 8400 fluorescence intensity (a.u.)
9 | CTAAACATGATATCACCAACTTCATCCTACCAAAATTTGGCGGAGTCACCTAGTGCAG | 3950 fluorescence intensity (a.u.)
10 | AGATGCGGCGCGGAGGTTGCGTGGCGGCACTGGTGCTAGCCGGAGTCACCTAGTGCAG | 4160 fluorescence intensity (a.u.)
11 | CCATCCTGCCAGGACGCAGAAGCGCAGGGTCGAGCCTCTCCGGAGTCACCTAGTGCAG | 3340 fluorescence intensity (a.u.)
12 | AAGTAGCATCACCTTTCAGTAATGTTGTCTCCACTCAGCACGGAGTCACCTAGTGCAG | 4840 fluorescence intensity (a.u.)
13 | CATTGCGCGCTAAAGGAGCACGTCACCTACACTAATCATTCGGAGTCACCTAGTGCAG | 3780 fluorescence intensity (a.u.)
14 | AATGCACTATTCATACTATAGCAAAATCCGACGTGGCACTCGGAGTCACCTAGTGCAG | 22800 fluorescence intensity (a.u.)
15 | CCCAACTGTTCTTTCCGTCACGTCACGCACAAGTCAAAATCGGAGTCACCTAGTGCAG | 5230 fluorescence intensity (a.u.)
16 | GGCACTATAGATGTTTGGTTTCGCTGACGTGGCATTCTAGCGGAGTCACCTAGTGCAG | 49000 fluorescence intensity (a.u.)
17 | CTACAACACTAGACTACGGGGAGCACGAGCTACACGACTGCGGAGTCACCTAGTGCAG | 5030 fluorescence intensity (a.u.)
18 | TGCCAGGGTGAATACGTGTTGTTTATTGGCTAGCTAATAACGGAGTCACCTAGTGCAG | 3400 fluorescence intensity (a.u.)
19 | CTCTTTTCCCCATCTCACATACTGTGCCTTGCCTCCATAACGGAGTCACCTAGTGCAG | 65200 fluorescence intensity (a.u.)
20 | AGGTCCCGCGACACCGGCGTGTGGCCGCTCGCCGTCTGATCGGAGTCACCTAGTGCAG | 12500 fluorescence intensity (a.u.)
21 | AACTACAAACCACGTCGATGGCAATACAAGACCGGTGTTCCGGAGTCACCTAGTGCAG | 4340 fluorescence intensity (a.u.)

Row | Sequence | binding signal
22 | GCATGCATCCGTCAGCACGCAGCATGCTGCTCCCGTATTACGGAGTCACCTAGTGCAG | 4990 fluorescence intensity (a.u.)
23 | TTCAACGGCATGATATCGATCTAGGGGAGATGATGTCAAACGGAGTCACCTAGTGCAG | 31500 fluorescence intensity (a.u.)
24 | TCTCTGCTCTCGCACAGGCGGCGGCGTGCGTGGCCGGAGGCGGAGTCACCTAGTGCAG | 3470 fluorescence intensity (a.u.)
25 | TGTATGTATTAACTGCCGGTGGCCACCGTGGCCGGCCGTGCGGAGTCACCTAGTGCAG | 3820 fluorescence intensity (a.u.)
26 | GGATTAAACTTATTGATGACATACCGGTGGAGTCAATGGACGGAGTCACCTAGTGCAG | 5070 fluorescence intensity (a.u.)
27 | GAAGATGACGACGAGTGAGACTGTGCTGGGGTTCATACGTCGGAGTCACCTAGTGCAG | 3660 fluorescence intensity (a.u.)
28 | GATTGAAACATCAAGGACTAAACTGAGTCTCAGATGAAACCGGAGTCACCTAGTGCAG | 58100 fluorescence intensity (a.u.)
29 | TATGTGAATAACCAGGAATATTGTTTGACAAGAGAAGAGGCGGAGTCACCTAGTGCAG | 18000 fluorescence intensity (a.u.)
30 | TTCTACCACTTCAACTCATGCCTGATGCCACCGTGTGTGCCGGAGTCACCTAGTGCAG | 3800 fluorescence intensity (a.u.)
31 | AGGGCACTGTCATCGGGGTCAGGGTTAGGGTCACCGCCACCGGAGTCACCTAGTGCAG | 3520 fluorescence intensity (a.u.)
32 | TGGGACTCACCCGCTGACTCAGCTAGTCAATCGTGGTCATCGGAGTCACCTAGTGCAG | 15400 fluorescence intensity (a.u.)
33 | GATATGTGTGGGTGGGTTCCTGGATCCGGCGCAGAGGTGTCGGAGTCACCTAGTGCAG | 4060 fluorescence intensity (a.u.)
34 | ACTGTCGCACACATTGAGCAGTGTGACTCAGTGAGCCACCCGGAGTCACCTAGTGCAG | 4010 fluorescence intensity (a.u.)
35 | TGTTTGGCTCGGGTTCCAAGAAAGTCCAGCCTGCCATGATCGGAGTCACCTAGTGCAG | 23300 fluorescence intensity (a.u.)
36 | GCCATTATGTAGCCACGTGTCATCCAAATTTGCAACTAGGCGGAGTCACCTAGTGCAG | 16200 fluorescence intensity (a.u.)
37 | ATATCTACCTCATTGTTTGAGGCATGACCTGTAATTTGACCGGAGTCACCTAGTGCAG | 3380 fluorescence intensity (a.u.)
38 | CTATGACTTTAGTGGCTAGAGTCAGCCGGATCAACCTGTTCGGAGTCACCTAGTGCAG | 24900 fluorescence intensity (a.u.)
39 | GCCCGCACCACCGCACGTGCACCCCTCAAACTCGCCATCGCGGAGTCACCTAGTGCAG | 4230 fluorescence intensity (a.u.)
40 | CCAAGCTAATGCCACGTAAGCGCCACGTAGGATAAAGACTCGGAGTCACCTAGTGCAG | 27900 fluorescence intensity (a.u.)
41 | CGACTCACCTGCCGAGCCACGCGTCGCGCACGCTGCGGAGCGGAGTCACCTAGTGCAG | 3170 fluorescence intensity (a.u.)
42 | AAACATAGAAGATGGATGGTGATGTCAATGATGTGCCTCACGGAGTCACCTAGTGCAG | 3830 fluorescence intensity (a.u.)

Not a retest: an excerpt of the list.
Row | Sequence | binding signal
39 | GCCCGCACCACCGCACGTGCACCCCTCAAACTCGCCATCGCGGAGTCACCTAGTGCAG | 4230 fluorescence intensity (a.u.)
40 | CCAAGCTAATGCCACGTAAGCGCCACGTAGGATAAAGACTCGGAGTCACCTAGTGCAG | 27900 fluorescence intensity (a.u.)
